Results are given in words; binding and its absence hold for the method and conditions named. Some results given as binding are weak or reduced against the parent protein; the word gives no strength. For some of these results: Where a sequence is shown, tags or fusion partners need not be part of it.
Columns and labels:
prostasin [1] = target: T1, prostasin (Homo sapiens, UniProt Q16651); test: prostasin-binding assay, SDS-PAGE and western blot
prostasin [2] = target: T1, prostasin; test: complex formation at different pH, western blot
prostasin [3] = target: T1, prostasin; test: incubation with prostasin, SDS-PAGE and immunoblot

Protein sequences, listed by entry. Tags and fused reporters are not part of them. Residues count along the entry.
UniProt Q16651, residues 33-322: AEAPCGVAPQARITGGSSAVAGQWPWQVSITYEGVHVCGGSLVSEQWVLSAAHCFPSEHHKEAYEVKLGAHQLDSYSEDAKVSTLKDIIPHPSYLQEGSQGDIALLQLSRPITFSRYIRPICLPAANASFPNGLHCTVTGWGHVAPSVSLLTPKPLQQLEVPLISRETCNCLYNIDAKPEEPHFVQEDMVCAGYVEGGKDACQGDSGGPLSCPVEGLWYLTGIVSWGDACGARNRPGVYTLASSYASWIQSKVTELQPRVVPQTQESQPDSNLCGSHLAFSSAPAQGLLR

binding (prostasin [1])	binding (prostasin [2])	binding (prostasin [3])	Binder
binds	binds		mouse prostasin-binding protein (mPBP) (protein, UniProt Q07235 20-397, looked up) SQFNSLSLEELGSNTGIQVFNQIIKSRPHENVVVSPHGIASILGMLQLGADGKTKKQLSTVMRYNVNGVGKVLKKINKAIVSKKNKDIVTVANAVFLRNGFKMEVPFAVRNKDVFQCEVQNVNFQDPASASESINFWVKNETRGMIDNLLSPNLIDGALTRLVLVNAVYFKGLWKSRFQPESTKKRTFVAGDGKSYQVPMLAQLSVFRSGSTRTPNGLWYNFIELPYHGESISMLIALPTESSTPLSAIIPHITTKTIDSWMNTMVPKRMQLVLPKFTAVAQTDLKEPLKALGITEMFEPSKANFTKITRSESLHVSHILQKAKIEVSEDGTKASAATTAILIARSSPPWFIVDRPFLFSIRHNPTGAILFLGQVNKP
		binds	GST-mPN-1 (protein, mouse, UniProt Q07235 20-397, looked up, not shown: a dimerising Fc or GST) SQFNSLSLEELGSNTGIQVFNQIIKSRPHENVVVSPHGIASILGMLQLGADGKTKKQLSTVMRYNVNGVGKVLKKINKAIVSKKNKDIVTVANAVFLRNGFKMEVPFAVRNKDVFQCEVQNVNFQDPASASESINFWVKNETRGMIDNLLSPNLIDGALTRLVLVNAVYFKGLWKSRFQPESTKKRTFVAGDGKSYQVPMLAQLSVFRSGSTRTPNGLWYNFIELPYHGESISMLIALPTESSTPLSAIIPHITTKTIDSWMNTMVPKRMQLVLPKFTAVAQTDLKEPLKALGITEMFEPSKANFTKITRSESLHVSHILQKAKIEVSEDGTKASAATTAILIARSSPPWFIVDRPFLFSIRHNPTGAILFLGQVNKP
		binds	GST-hPN-1 (protein, human, UniProt P07093 20-398, looked up, not shown: a dimerising Fc or GST) SHFNPLSLEELGSNTGIQVFNQIVKSRPHDNIVISPHGIASVLGMLQLGADGRTKKQLAMVMRYGVNGVGKILKKINKAIVSKKNKDIVTVANAVFVKNASEIEVPFVTRNKDVFQCEVRNVNFEDPASACDSINAWVKNETRDMIDNLLSPDLIDGVLTRLVLVNAVYFKGLWKSRFQPENTKKRTFVAADGKSYQVPMLAQLSVFRCGSTSAPNDLWYNFIELPYHGESISMLIALPTESSTPLSAIIPHISTKTIDSWMSIMVPKRVQVILPKFTAVAQTDLKEPLKVLGITDMFDSSKANFAKITTGSENLHVSHILQKAKIEVSEDGTKASAATTAILIARSSPPWFIVDRPFLFFIRHNPTGAVLFMGQINKP

Source: patent publication US20040018580A1, “Synthetic substrates for prostasin” (priority 2002, published 2004)
